Binding data for 3 molecules are collected here from paper PMC4791683.

Protein sequences, listed by entry. Tags and fused reporters are not part of them. Residues count along the entry.
UniProt P29117, residues 30-206: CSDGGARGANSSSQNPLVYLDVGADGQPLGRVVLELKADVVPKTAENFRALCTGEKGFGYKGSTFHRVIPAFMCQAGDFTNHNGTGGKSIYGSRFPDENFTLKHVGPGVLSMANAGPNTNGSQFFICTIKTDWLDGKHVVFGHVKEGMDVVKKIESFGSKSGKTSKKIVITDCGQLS

Results are given in words; binding and its absence hold for the method and conditions named. Binding seen in cells or lysates may run through a third protein. Some results given as binding are weak or reduced against the parent protein; the word gives no strength.

Assay [1] deals with T1, peroxiredoxin 3 (rat (endogenous in rat heart mitochondria)) (UniProt Q9Z0V6).
T1 sequence: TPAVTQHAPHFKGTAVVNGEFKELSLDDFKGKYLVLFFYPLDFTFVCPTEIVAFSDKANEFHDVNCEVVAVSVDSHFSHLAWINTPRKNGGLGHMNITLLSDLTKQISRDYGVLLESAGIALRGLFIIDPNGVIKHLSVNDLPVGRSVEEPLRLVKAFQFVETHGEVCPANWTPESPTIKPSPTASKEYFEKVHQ
As to the kind of experiment: co-IP; pre-reduced (TrxR1, NADPH) rat heart mitochondrial matrix (200 ug protein); immunoprecipitated with anti-Trx2 or anti-Prx3 monoclonal antibody and protein A/G PLUS-Agarose at 4 °C, 50 mM Tris/HCl pH 7.4, 50 mM NaCl; blot probed with monoclonal anti-CypD.

For assay [2], the target named is T2, thioredoxin 2 (rat (endogenous in rat heart mitochondria)) (UniProt P97615).
T2 sequence: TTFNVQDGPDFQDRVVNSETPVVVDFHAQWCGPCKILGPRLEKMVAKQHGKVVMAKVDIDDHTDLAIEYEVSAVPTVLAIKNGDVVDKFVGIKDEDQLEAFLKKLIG
The description is as above.

Assay [3] deals with cyclophilin D (rat (endogenous in rat heart mitochondria)) (UniProt P29117). As to the kind of experiment: co-IP; reverse: pre-reduced rat heart mitochondrial matrix immunoprecipitated with an anti-CypD antibody, same procedure; Trx2 and Prx3 detected in the pull down.

In the case of “cyclophilin D (from UniProt P29117 30-206)”, the binding entry in assay [1] and in assay [2] was “binds” throughout.

B1: thioredoxin 2 (protein, UniProt P97615 60-166)
chain: TTFNVQDGPDFQDRVVNSETPVVVDFHAQWCGPCKILGPRLEKMVAKQHGKVVMAKVDIDDHTDLAIEYEVSAVPTVLAIKNGDVVDKFVGIKDEDQLEAFLKKLIG
In the case of B1, in assay [3], the binding entry is “binds”.

B2: peroxiredoxin 3 (protein, UniProt Q9Z0V6 63-257)
chain: TPAVTQHAPHFKGTAVVNGEFKELSLDDFKGKYLVLFFYPLDFTFVCPTEIVAFSDKANEFHDVNCEVVAVSVDSHFSHLAWINTPRKNGGLGHMNITLLSDLTKQISRDYGVLLESAGIALRGLFIIDPNGVIKHLSVNDLPVGRSVEEPLRLVKAFQFVETHGEVCPANWTPESPTIKPSPTASKEYFEKVHQ
In the case of B2, the binding entry in assay [3] is on record as “binds”.
